Patent publication US10335409B2 (priority 2012, dated 2019)
For at least one compound, name, drawing or mass did not settle the structure.

Protein sequences, listed by entry. Tags and fused reporters are not part of them. Residues count along the entry.
UniProt Q9WMX2, 1027-1208 E1202G: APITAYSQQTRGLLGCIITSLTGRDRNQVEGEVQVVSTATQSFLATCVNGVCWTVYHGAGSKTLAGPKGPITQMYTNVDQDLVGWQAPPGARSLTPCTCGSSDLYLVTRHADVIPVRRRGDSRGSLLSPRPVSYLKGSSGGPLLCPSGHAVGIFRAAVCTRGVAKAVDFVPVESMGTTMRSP

Target: HCV NS3 protease domain genotype 1b (Hepatitis C virus genotype 1b (isolate Con1), UniProt Q9WMX2, E1202G)
Assay: Ki determination, NS3 protease genotype 1b (fluorogenic depsipeptide substrate)
Type: biochemical
Conditions: 50 pM enzyme, NS4A peptide
Procedure: Purified NS3 protease domain (amino acids 1-181) of the genotype 1b and 3a virus were generated as above.
Reactions were run at room temperature in buffer consisting of 50 mM HEPES, 40% glycerol, 0.05% Triton X-100, 10 mM DTT, and 10% DMSO. The final assay solutions contained 50 pM NS3 genotype 1 b protease or 200 pM genotype 3a protease, 20 μM NS4A peptide, and 4 μM substrate (genotype 1b) or 2 μM substrate (genotype 3a). Inhibitor concentrations varied from 100 nM to 5 pM in 3-fold dilutions, and no-inhibitor controls were included.
Compound dilutions were made in DMSO at 20× final concentration. Reaction mixtures were prepared in 96-well assay plates. A solution of enzyme and NS4A peptide in assay buffer (25 μL volume with both reagents at 4× final concentration) was mixed with 45 μL assay buffer and 5 μL of either inhibitor or DMSO, and pre-incubated at room temperature for 1 hour. The reaction was started by addition of 25 μL substrate solution at 4× final concentration. Plates were mixed vigorously for 5-10 seconds and reactions were allowed to proceed for 90 minutes, fluorescence was measured every 30 s between 90 and 120 minutes reaction time using a Tecan InfiniTe M1000 or PerkinElmer Envision multimode plate reader with an excitation wavelength of 340 nm and an emission wavelength of 490 nm.
To determine the Ki, rates were plotted as a function of inhibitor concentration, and the data were fit with equation 1 (Morrison, J. F., Biochimica et Biophysica Acta 1969, 185, 269-286) to calculate Ki^app using GraphPad Prism 5. […] Ki was calculated from Ki^app/(1+[[S]/Km]).

Compound `COc1ccc2nc3c(nc2c1)O[C@H]1CN(C(=O)[C@H](C(C)(C)C)NC(=O)O[C@@H]2C[C@H]2CCCCC3)[C@H](C(=O)N[C@]2(C(=O)NS(=O)(=O)C3(C)CC3)C[C@H]2C(F)F)[C@@H]1C` [Example 18, (1aR,5S,8S,9S,10R,22aR)-5-tert-butyl-N-[(1R,2R)-2-(difluoromethyl)-1-{[(1-methylcyclopropyl)sulfonyl]carbamoyl}cyclopropyl]-14-methoxy-9-methyl-3,6-dioxo-1,1a,3,4,5,6,9,10,18,19,20,21,22,22a-tetradecahydro-8H-7,10-methanocyclopropa[18,19][1,10 3,6]dioxadiazacyclononadecino[11,12-b]quinoxaline-8-carboxamide] has a Ki of 0.03 nM.
With `COc1ccc2nc3c(nc2c1)O[C@H]1CN(C(=O)[C@H](C(C)(C)C)NC(=O)O[C@@H]2CCC[C@H]2CCCCC3)[C@H](C(=O)N[C@]2(C(=O)NS(=O)(=O)C3(C)CC3)C[C@H]2C(F)F)[C@@H]1C` [Example 27, (3aR,7S10S,1S,12R,24aR)-7-tert-butyl-N-[(1R,2R)-2-(difluoromethyl)-1-{[(1-methylcyclopropyl)sulfonyl]carbamoyl}cyclopropyl]-16-methoxy-11-methyl-5,8-dioxo-1,2,3,3a,5,6,7,8,11,12,20,21,22,23,24,24a-hexadecahydro-10H-9,12-methanocyclopenta[18,19][1,10,3,6]dioxadiazacyclononadecino[11,12-b]quinoxaline-10-carboxamide] the Ki was 0.03 nM.
`COc1ccc2nc3c(nc2c1)O[C@H]1CN(C(=O)[C@H](C(C)(C)C)NC(=O)O[C@@H]2C[C@H]2CCCCC3)[C@H](C(=O)N[C@]2(C(=O)NS(=O)(=O)C3(C)CC3)C[C@H]2C(F)F)[C@@H]1Cc1ccccc1` [Example 32] was tested, and the Ki was 0.18 nM.
